Laboratory results: patent US4393228A, “Epoxysuccinic acid derivatives” (Taisho Pharmaceutical Co., Ltd., priority 1977, dated 1983)
At least one compound was matched to its structure with a doubt left.

What follows are compounds tested against T1, papain (Carica papaya, UniProt P00784) (assay: Papain inhibitory activity (milk casein digestion)). Conditions: papain 80 μg/ml 0.5 ml, cysteine, pH 6.8, 1% milk casein, 40° C., 10 minutes.
T1 construct: purchased Sigma Chem. Co
T1 sequence (P00784 134-345): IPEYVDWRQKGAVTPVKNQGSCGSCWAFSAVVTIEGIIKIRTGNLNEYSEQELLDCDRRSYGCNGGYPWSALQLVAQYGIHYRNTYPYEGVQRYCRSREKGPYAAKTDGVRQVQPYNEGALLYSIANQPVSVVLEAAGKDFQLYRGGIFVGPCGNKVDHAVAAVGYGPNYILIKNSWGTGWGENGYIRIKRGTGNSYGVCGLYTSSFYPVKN
Type: biochemical
Method: Papain inhibitory activity of the compounds of this invention was assayed as follows: To 0.5 ml of a solution of papain (80 μg/ml, Sigma Chem. Co., 2x cry.), were added 0.25 ml of 40 mM cysteine dissolved in 20 mM disodium ethylenediamine tetraacetic acid solution adjusted pH to 6.8 with sodium hydroxide and 0.25 ml of 33 mM phosphate buffer (pH 6.8) with or without inhibitor. After incubation at 40° C. for 15 minutes, the resulting mixture was added to 5 ml of 1% milk casein solution in the same buffer as described above, and further incubated at 40° C. for 10 minutes. Then the mixture was mixed with 5 ml of 0.44 M trichloroacetic acid solution and followed by filtration with a sheet of Toyo filter paper No. 4. The extinction of the filtrate was read at 280 nm. The percent inhibition was calculated from the formula, 100 x (B-A)/B; wherein B stands for the absorbance without inhibitor and A for the absorbance with inhibitor. The compound Nos. in Table 1 are as defined in Examples as described hereinafter.

Structure (SMILES)	ID50 (amount of inhibitor for 50% inhibition)
COc1ccc(COC(=O)C2OC2C(=O)N2CCC[C@H]2C(=O)OCc2ccccc2)cc1 (stereo partly drawn) [EP-161, N-(3-anisyloxycarbonyloxirane-2-carbonyl)-L-proline benzyl ester]	3.40 γ
O=C(NCCCC[C@H](NC(=O)C1OC1C(=O)Oc1ccccc1)C(=O)OCc1ccccc1)OCc1ccccc1 (stereo partly drawn) [EP-179, N^α -(phenoxycarbonyloxirane-2-carbonyl)-N^ε -carbobenzoxy-L-lysine benzyl ester]	1.60 γ
O=C(CC[C@H](NC(=O)C1OC1C(=O)OCc1cccs1)C(=O)OCc1ccccc1)OCc1ccccc1 (stereo partly drawn) [EP-216, N-(3-thenyloxycarbonyloxirane-2-carbonyl)-L-glutamic acid dibenzyl ester]	3.25 γ
